Some of the results follow. Shown are side measurements of this screen, not its main read-out; they come without a call. Most of these compounds were active or inconclusive in the main read-out, so they are no random draw.
Assay: blockers of dexamethasone-driven GR-EGFP nuclear import – imaging, high-content imaging, GR-EGFP cells, confirmation (AID 463116)
Conditions: 3617.4 GR-EGFP nuclear translocation imaging, dexamethasone-induced; measured here: cell count per field; at 20 µM

Row | Structure (SMILES) | z-score
1 | N#CCCn1cc(C=C(C#N)C#N)c(-c2ccc(-c3ccccc3)cc2)n1 | -0.763
2 | O=C(c1ccccc1)c1ccccc1N1C(=O)C=CC1=O | -0.854
3 | CCCCCCN1C=CC(=C/C=C(\C#N)C(=O)OCC)C=C1 | 0.202
4 | COc1ccc(C(c2c(C)[nH]n(C(N)=S)c2=O)C(C#N)C#N)cc1 (configuration not stated) | 0.566
5 | COC(=O)c1cc(=O)n(Cc2ccc3c(c2)OCO3)c(=Nc2ccc(F)c(Cl)c2)s1 | 0.848
6 | COC(=O)c1cc([N+](=O)[O-])c(-n2cncn2)c([N+](=O)[O-])c1 | 0.933
7 | CCN(Cc1ccc(OC)c(F)c1)C(=O)CCl | 0.0453
8 | O=C(Nc1ccc(F)cc1)c1nn(-c2ccccc2)c(=O)cc1Cl | -0.314
9 | CCOc1ccccc1N1C(=O)CC(Sc2n[nH]c(-c3ccccc3)n2)C1=O (configuration not stated) | -0.105
10 | COc1ccc(CN(CCC(c2ccccc2)c2ccc(OC(C)C)cc2)C(=O)CCl)cc1OC (configuration not stated) | 0.229
11 | CCC(=O)Nc1ccc(C(=O)Cn2ncc(Cl)c(Cl)c2=O)cc1 | 0.0579
12 | CC(=O)NCc1ccc(C(=O)CCl)cc1 | -0.255
13 | COc1ccc(NC(=O)CCc2nc3ccccc3s2)c(OC)c1 | 0.863
14 | CS(=O)(=O)c1ccc(S(=O)CC(=O)Oc2ccc(Cl)cc2)c([N+](=O)[O-])c1 (configuration not stated) | 0.195
15 | CCOc1cc(C=C(C(=O)OC)C(=O)OC)ccc1OCc1ccc([N+](=O)[O-])cc1 | 0.231
16 | Nc1cccc2c1C(=O)N(C(=O)/C=C/c1cccc(Br)c1)C2=O | 0.151
17 | O=C(/C=C/c1cccnc1)/C=C/c1cccnc1 | 0.412
18 | Cc1[nH]c2ccccc2c1/C=N/Nc1ccc([N+](=O)[O-])cc1S(=O)(=O)Nc1ccc(Cl)cc1 | -0.556
19 | CCOc1ccc(/C=C/[N+](=O)[O-])c2ccccc12 | -1.34
20 | O=C1c2cc([N+](=O)[O-])cc3cc([N+](=O)[O-])cc(c23)C(=O)N1c1ccccn1 | 0.401
21 | CC(C)N1C/C(=C/c2cccnc2)C(=O)/C(=C/c2cccnc2)C1 | 0.513
22 | CCCN(CCC)C(=O)c1cc([N+](=O)[O-])cc2c1-c1ccc([N+](=O)[O-])cc1C2=C(C#N)C#N | -0.0455
23 | CCOC(=O)N1C/C(=C\c2ccccc2)C(=O)/C(=C/c2ccccc2)C1 | 0.554

Row | Structure (SMILES) | z-score
24 | C=CS(=O)(=O)c1ccc(Oc2ccc(S(=O)(=O)C=C)cc2)cc1 | 0.528
25 | CCCN1C(=O)/C(=C\c2ccncc2)SC1=Nc1ccccc1 | 0.451
26 | CC(=O)/C(=C/c1ccccc1)C(=O)Nc1ccccc1C | 0.0108
27 | CCOc1cc(/C=C2\C(=O)N(Cc3ccco3)C(C)=C2C(=O)OC)ccc1O | 0.229
28 | Cc1ccc(N2C(=N)/C(=C3/Nc4ccccc4S3)C(c3ccccc3)C2=O)cc1 (configuration not stated) | -0.307
29 | CCOC(=O)/C=C/C(=O)Nc1ccccc1-c1ccccc1NC(=O)/C=C/C(=O)OCC | 0.592
30 | CC(C)(C)C1CCc2sc(-c3nnc(CCl)o3)cc2C1 (configuration not stated) | 0.252
31 | CC(=O)n1cc(N(C(=O)CCl)c2ccccc2)c2ccccc21 | -0.358
32 | COc1cccc(/C(O)=C/c2nc3ccc(C(=O)NCCc4ccc(Cl)cc4)cc3[nH]c2=O)c1 | 0.745
33 | CS(=O)(=O)c1ccc(C(=O)OCc2nnc(-c3ccc(Cl)cc3)o2)cc1[N+](=O)[O-] | -0.274
34 | N#CC(C#N)=C1C=C2C=C(N3CCOCC3)CCC2CC1 (configuration not stated) | 0.0481
35 | CCOC(=O)C1CCCN(C(=O)Cn2sc3nc(C)cc(C)c3c2=O)C1 (configuration not stated) | 0.207
36 | CCSc1nc2ccccc2n1C(=O)/C=C\c1ccc(OC)c(OC)c1 | 0.411
37 | COc1ccc(N(C(=O)CCl)C(C(=O)NCCc2ccccc2)c2cccs2)cc1Cl (configuration not stated) | 0.623
38 | O=C(CCl)N(CCCNC(=O)C(F)(F)F)c1ccc([N+](=O)[O-])cc1 | 0.0387
39 | O=C(COc1ccc(/C=C\[N+](=O)[O-])cc1)N1CCOCC1 | 0.19
40 | COc1ccccc1/C=C/C(=O)/C=C/c1ccccc1O | 0.708
41 | CC1(C)COC(/C=C/c2cccc([N+](=O)[O-])c2)=N1 | 0.604
42 | Cc1ccc(N(CCC#N)C(=O)CCl)cc1C | 0.0514
43 | N#Cc1ccc(/C=C/C(=O)c2cccnc2)cc1 | 0.225
44 | O=C(NCCCN1CCCCCC1)c1ccc2c(Cl)c3c(nc2c1)CCCC3 | 0.698
45 | CS(=O)(=O)c1ncc(Cl)c(C(=O)Nc2ccc3ccccc3c2)n1 | 0.47
46 | Cc1ccc(N2C(=O)c3cccc4c(N)ccc(c34)C2=O)c2cccnc12 | -0.835

Row | Structure (SMILES) | z-score
47 | Cn1cnc([N+](=O)[O-])c1S(=O)(=O)c1ccc(Cl)cc1 | -0.365
48 | O=[N+]([O-])c1ccc(S(=O)(=O)CC(CN2CCCCC2)N2CCCCC2)cc1 (configuration not stated) | 0.0288
49 | Cn1c(=O)c([N+](=O)[O-])c(Cl)c2ccccc21 | 0.19
50 | C=CCSc1nnc(C)c(/C=C/Nc2ccc(Cl)cc2)n1 | 0.495
51 | O=C1C=C(NC2=CC3OC(c4ccccc4)OCC3OC2=O)CCC1 (configuration not stated) | 0.38
52 | CCN(CC)c1ccc2cc(-c3nc4ccccc4[nH]3)c(=O)oc2c1 | 0.898
53 | O=Cc1[nH]c2ccccc2c1N(C(=O)CCl)c1ccccc1 | 0.764
54 | O=[N+]([O-])c1cc([N+](=O)[O-])c2cccnc2c1Oc1ccccc1O | -1.6
55 | O=S(=O)(CCSc1ccccn1)c1nc2ccccc2s1 | 0.239
56 | Cc1cc(-c2nnc(-c3ccccc3)c(-c3ccccc3)n2)c(C)o1 | -1.47
57 | Cc1cc(NC(=O)CCCS(=O)(=O)c2nc(-c3cccs3)cc(C(F)(F)F)n2)no1 | -1.11
58 | COC(=O)c1cc(=O)n(CCc2ccc(OC)cc2)c(=Nc2ccc(F)c(Cl)c2)s1 | 0.539
59 | C/C=C(\CS(=O)(=O)c1ccccc1)S(=O)(=O)c1ccccc1 | -0.0669
60 | OC(CNCCc1ccc(Cl)cc1)COc1ccc2ccccc2c1 (configuration not stated) | -5.08
61 | COC(=O)NC(=C(Cl)Cl)S(=O)(=O)c1ccccc1 | -0.296
62 | CCOc1ccc(CN(C)C(=O)CCl)cc1 | 0.432
63 | COCCNC(=O)/C(C#N)=C/C=C/c1ccccc1[N+](=O)[O-] | 0.122
64 | CCOc1cc(/C=C\[N+](=O)[O-])ccc1OCC(=O)Nc1ccccc1C | -0.115
65 | C=C1C(=O)C=C2CN(C(=O)c3ccccc3)[C@@](Cc3ccc(F)cc3)(C(=O)OC)[C@@H]12 | 0.189
66 | O=C1COc2ccc(C(=O)CCl)cc2N1 | -0.0624
67 | O=C(OCCN1C(=O)c2cccc3c(N4CCOCC4)ccc(c23)C1=O)c1cccc(Cl)c1 | 0.443

Reformatted: results already given.

| Row | Structure (SMILES) | z-score |
| --- | --- | --- |
| 61 | COC(=O)NC(=C(Cl)Cl)S(=O)(=O)c1ccccc1 | -0.296 |
| 62 | CCOc1ccc(CN(C)C(=O)CCl)cc1 | 0.432 |
| 63 | COCCNC(=O)/C(C#N)=C/C=C/c1ccccc1[N+](=O)[O-] | 0.122 |
| 64 | CCOc1cc(/C=C\[N+](=O)[O-])ccc1OCC(=O)Nc1ccccc1C | -0.115 |
| 65 | C=C1C(=O)C=C2CN(C(=O)c3ccccc3)[C@@](Cc3ccc(F)cc3)(C(=O)OC)[C@@H]12 | 0.189 |
| 66 | O=C1COc2ccc(C(=O)CCl)cc2N1 | -0.0624 |

— PubChem BioAssay AID463116 (University of Pittsburgh Molecular Library Screening Center, 2010)
